This is an account of results in publication PMC7862700.

Sequences of proteins named here, by UniProt entry; tags and fusion partners are left off. A change or cut given only in a name is not applied to a line headed by its entry.
UniProt P41161: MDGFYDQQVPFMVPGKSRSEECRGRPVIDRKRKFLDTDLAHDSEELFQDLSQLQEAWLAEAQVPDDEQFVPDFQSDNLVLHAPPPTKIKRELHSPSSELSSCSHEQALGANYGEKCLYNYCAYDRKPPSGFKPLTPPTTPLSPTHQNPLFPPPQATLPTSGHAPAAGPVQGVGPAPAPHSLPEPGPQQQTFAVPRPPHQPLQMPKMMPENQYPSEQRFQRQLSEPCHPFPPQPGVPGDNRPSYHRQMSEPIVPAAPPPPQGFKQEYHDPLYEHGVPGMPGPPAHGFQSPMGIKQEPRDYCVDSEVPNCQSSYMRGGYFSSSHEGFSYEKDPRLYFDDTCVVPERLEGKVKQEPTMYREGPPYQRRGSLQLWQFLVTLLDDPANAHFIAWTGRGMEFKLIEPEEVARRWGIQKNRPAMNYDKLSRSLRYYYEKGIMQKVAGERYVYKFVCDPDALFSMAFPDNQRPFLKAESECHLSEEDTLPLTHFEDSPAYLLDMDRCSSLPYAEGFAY
UniProt Q99607: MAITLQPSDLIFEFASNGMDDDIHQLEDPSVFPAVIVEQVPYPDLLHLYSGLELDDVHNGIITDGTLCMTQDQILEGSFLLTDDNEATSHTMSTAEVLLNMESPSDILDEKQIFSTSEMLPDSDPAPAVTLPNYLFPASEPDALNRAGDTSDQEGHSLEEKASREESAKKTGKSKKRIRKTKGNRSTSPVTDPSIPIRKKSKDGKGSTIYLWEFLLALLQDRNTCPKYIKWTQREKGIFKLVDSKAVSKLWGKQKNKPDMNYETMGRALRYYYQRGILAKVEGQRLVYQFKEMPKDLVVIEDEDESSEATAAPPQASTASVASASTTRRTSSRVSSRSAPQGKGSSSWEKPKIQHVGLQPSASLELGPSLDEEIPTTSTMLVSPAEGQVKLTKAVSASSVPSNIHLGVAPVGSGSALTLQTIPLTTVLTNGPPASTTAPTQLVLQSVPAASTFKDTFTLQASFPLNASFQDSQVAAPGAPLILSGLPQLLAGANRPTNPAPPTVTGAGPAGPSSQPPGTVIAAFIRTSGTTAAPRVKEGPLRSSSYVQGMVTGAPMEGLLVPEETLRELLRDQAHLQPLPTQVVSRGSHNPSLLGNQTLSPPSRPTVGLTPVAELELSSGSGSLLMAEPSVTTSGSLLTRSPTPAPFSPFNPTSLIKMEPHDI
UniProt Q01892: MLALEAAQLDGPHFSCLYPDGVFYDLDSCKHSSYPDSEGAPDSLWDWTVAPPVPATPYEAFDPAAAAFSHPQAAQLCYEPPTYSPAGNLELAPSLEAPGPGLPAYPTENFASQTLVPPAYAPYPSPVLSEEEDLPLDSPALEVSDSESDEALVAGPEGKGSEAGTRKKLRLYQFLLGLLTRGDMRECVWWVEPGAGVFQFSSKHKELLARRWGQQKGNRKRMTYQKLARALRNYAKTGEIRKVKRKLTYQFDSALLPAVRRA

Some targets named below: ETV5 (UniProt P41161); ELF4 (UniProt Q99607); SPIB (UniProt Q01892).
Experiment in all cases: DAPPL (digital affinity profiling via proximity ligation, sequencing)
Conditions in all cases: 10 mM Tris-HCl pH 7.5, 50 mM NaCl, 1 mM DTT, 4% glycerol, room temperature, 30 min; GST-TFs on glutathione beads, 16-mer random dsDNA library, 0.1% …; high values mean tight binding; double strand, one strand shown; scale: fold enrichment (6-mer frequency, TF over GST control)

A further test has as its target T1, ETV2 (UniProt O00321).
T1 sequence: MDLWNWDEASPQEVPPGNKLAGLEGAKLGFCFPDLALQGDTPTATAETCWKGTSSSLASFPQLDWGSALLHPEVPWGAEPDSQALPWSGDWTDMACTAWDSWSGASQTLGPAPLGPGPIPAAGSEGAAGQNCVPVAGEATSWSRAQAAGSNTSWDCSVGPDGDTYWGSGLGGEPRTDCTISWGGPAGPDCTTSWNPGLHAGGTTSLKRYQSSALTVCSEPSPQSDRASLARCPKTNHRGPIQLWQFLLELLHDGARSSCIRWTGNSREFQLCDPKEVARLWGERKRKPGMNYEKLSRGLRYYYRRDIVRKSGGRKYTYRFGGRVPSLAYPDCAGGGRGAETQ

A further test addresses T2, FLI1 (UniProt Q01543).
T2 sequence: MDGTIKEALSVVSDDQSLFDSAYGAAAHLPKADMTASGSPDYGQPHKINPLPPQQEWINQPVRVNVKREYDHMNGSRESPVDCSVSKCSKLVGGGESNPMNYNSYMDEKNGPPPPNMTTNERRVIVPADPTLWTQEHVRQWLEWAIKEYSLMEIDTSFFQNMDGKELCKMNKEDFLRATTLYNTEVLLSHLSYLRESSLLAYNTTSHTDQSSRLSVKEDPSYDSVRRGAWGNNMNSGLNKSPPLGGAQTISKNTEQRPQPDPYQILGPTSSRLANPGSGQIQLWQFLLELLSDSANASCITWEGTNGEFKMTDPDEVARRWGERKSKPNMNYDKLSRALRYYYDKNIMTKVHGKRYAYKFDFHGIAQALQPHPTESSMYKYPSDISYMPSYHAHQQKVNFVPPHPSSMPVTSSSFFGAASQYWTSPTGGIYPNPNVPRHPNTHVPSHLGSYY

The next test concerns the target T3, EHF (UniProt Q9NZC4).
T3 sequence: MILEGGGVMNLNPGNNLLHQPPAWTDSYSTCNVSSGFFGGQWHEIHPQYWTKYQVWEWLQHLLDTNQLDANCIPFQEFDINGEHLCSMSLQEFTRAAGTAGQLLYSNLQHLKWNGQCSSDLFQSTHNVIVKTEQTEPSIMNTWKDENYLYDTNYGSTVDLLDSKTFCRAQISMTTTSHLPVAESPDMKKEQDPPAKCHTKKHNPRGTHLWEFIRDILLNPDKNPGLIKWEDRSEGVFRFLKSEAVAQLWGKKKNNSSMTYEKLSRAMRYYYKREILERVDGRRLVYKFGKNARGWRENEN

The target in a further test is T4, ETV3L (UniProt Q6ZN32).
T4 sequence: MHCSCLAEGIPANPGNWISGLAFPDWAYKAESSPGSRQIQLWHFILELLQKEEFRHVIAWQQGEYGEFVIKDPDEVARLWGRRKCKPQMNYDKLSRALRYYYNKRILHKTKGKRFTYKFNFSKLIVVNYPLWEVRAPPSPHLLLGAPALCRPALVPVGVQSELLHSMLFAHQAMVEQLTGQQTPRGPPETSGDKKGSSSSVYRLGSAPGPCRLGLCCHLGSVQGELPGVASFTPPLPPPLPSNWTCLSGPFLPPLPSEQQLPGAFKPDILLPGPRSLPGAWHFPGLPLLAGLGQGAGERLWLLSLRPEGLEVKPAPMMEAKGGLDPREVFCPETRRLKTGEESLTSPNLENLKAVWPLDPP

This is a selection; strong and weak results do not stand in their true shares. At the low end of the ranking the order means little.

Regarding ATCTAT, the binding signal with ETV5 amounted to 1.15.

For TAGTTA, the binding signal with ETV5 came out at 1.19.

TCCAAG returned a binding signal with ETV5 of 1.07.

In the test with ETV5, AAATGC had a binding signal of 1.34.

Sequence ATGATG displayed a binding signal with ETV5 of 1.33.

For the sequence AATCAC, in the test with ETV5, the binding signal worked out at 1.14.

As for AAAACG, the binding signal in the test with ETV5 stood at 1.29.

CAACTA came in with a binding signal with ETV5 of 1.26.

Turning to AGCTAT, in the test with ETV5, the binding signal was 1.16.

On to AACCAC, for which, in the test with ETV5, the binding signal came out at 1.17.

In the test with ETV5, CCCCAA came in with a binding signal of 1.12.

With GTTCGC, in the test with ETV5, the binding signal amounted to 0.996.

With GTTCAC, the binding signal with ETV5 was determined as 1.2.

In the test with ETV5, ACTCTG gave a binding signal of 1.27.

The sequence CATTCT displayed a binding signal in the test with ETV5 of 1.28.

Take CGAATT: the binding signal with ETV5 stood at 1.21.

On to GGAAAT, for which the binding signal in the test with ETV5 was 3.05.

In the test with ETV5, TATGAT had a binding signal of 1.24.

The sequence CTCGGC showed a binding signal in the test with ETV5 of 1.41.

AAACCT showed a binding signal in the test with ETV5 of 1.13.

For the sequence GTTGCT, the binding signal with ETV5 turned out to be 1.28.

In the case of CTGGTA, in the test with ETV5, the binding signal amounted to 1.25.

CTCTCG: in the test with ETV5, the binding signal amounted to 1.32.

CCACTG showed a binding signal in the test with ETV5 of 1.15.

As to TGCATG, in the test with ETV5, the binding signal came out at 1.15.

TATATC returned a binding signal with ETV5 of 1.6.

In the test with ETV5, ACTCAT had a binding signal of 1.32.

On to TGGGCT, for which the binding signal in the test with ETV5 amounted to 1.4.

As for AAATAG, the binding signal in the test with ETV5 came out at 1.2.

For CTATTT, the binding signal in the test with ETV5 came out at 1.64.

In turn, GCTCTC came in with a binding signal with ETV5 of 1.28.

For the sequence CTACCT, the binding signal with ETV5 amounted to 1.36.

The sequence TTTCTA displayed a binding signal with ETV5 of 1.37.

Sequence AATCTG displayed a binding signal in the test with ETV5 of 1.4.

As for GCAAAT, in the test with ETV5, the binding signal stood at 1.1.

For the sequence TGCCAT, the binding signal with ETV5 is 1.03.

Take TTCGCT: the binding signal in the test with ETV5 was found to be 1.24.

In the case of TGGCAT, in the test with ETV5, the binding signal is 1.13.

In the test with ETV5, TCACCC came in with a binding signal of 1.18.

In turn, CTTGGC registered a binding signal with ETV2 of 0.997.

As to CGACTG, the binding signal with ETV2 was determined as 1.19.

Take GTAGCA: the binding signal was determined as 1.03 in the test with FLI1, 1.13 with ETV5, 1.07 with ELF4 and 1.11 in the test with ETV2.

Turning to AAACAG, the binding signal in the test with FLI1 was 0.957; in the test with EHF, 0.959; with SPIB, 0.966; with ETV5 it was 1.07; with ELF4 it was 0.981; with ETV2, 0.962. Further, in the test with ETV3L, the binding signal was determined as 0.953.

With GGGCAT, the binding signal with FLI1 stood at 0.875; with EHF it was 0.855; with SPIB, 0.86; with ETV5 it was 0.89; with ELF4, 0.91; in the test with ETV2, 0.904. In the test with ETV3L, this sequence displayed a binding signal of 0.856.

Consider ATCCGT, for which the binding signal with FLI1 was determined as 0.983; in the test with EHF, 0.987; with ETV5 it was 1.05; in the test with ELF4, 0.903; with ETV2, 0.917; with ETV3L, 0.971.

Take CTAGTG: the binding signal with FLI1 is 0.844; in the test with EHF, 0.936; in the test with SPIB, 0.92; with ETV5, 0.855; in the test with ELF4 it was 0.865; in the test with ETV2, 0.807. The binding signal with ETV3L was determined as 0.885.

On to CAGATA, for which the binding signal with FLI1 was determined as 0.914; in the test with EHF, 0.876; with SPIB it was 0.999; with ETV5, 0.907; with ELF4, 0.905; with ETV2 it was 0.974. The sequence further had a binding signal in the test with ETV3L of 0.959.

For the sequence CCACCA, the binding signal was 0.997 with FLI1, 0.989 with ETV5, 0.996 with ELF4 and 0.996 with ETV2.

As for GACTCG, the binding signal was found to be 0.93 with FLI1; 0.91 with EHF; 0.871 with SPIB; 0.886 with ETV5; 0.93 with ELF4; 0.931 with ETV2. Moreover, in the test with ETV3L, the binding signal turned out to be 0.834.

GATCTG: the binding signal came out at 0.903 with FLI1; 0.98 in the test with EHF; 0.902 with SPIB; 0.911 with ETV5; 0.941 with ELF4; 0.876 in the test with ETV2. The same sequence yielded a binding signal in the test with ETV3L of 0.95.

For GTGATG, the binding signal with FLI1 stood at 0.94; with EHF, 0.85; with ETV5, 0.893; with ELF4, 0.991; with ETV2, 0.883; with ETV3L it was 0.892.

Take ATAGTC: the binding signal with FLI1 stood at 0.952; with EHF, 0.853; in the test with SPIB, 0.755; in the test with ETV5, 0.938; with ELF4, 0.865; with ETV2, 0.901. Moreover, in the test with ETV3L, the binding signal is 0.883.

Take ATCAGA: the binding signal amounted to 0.989 with FLI1; 0.971 with EHF; 0.915 with SPIB; 0.97 in the test with ETV5; 0.963 in the test with ELF4; 0.965 with ETV2. Further, in the test with ETV3L, the binding signal is 0.954.

Regarding GGGATT, the binding signal worked out at 0.847 in the test with FLI1; 0.862 with EHF; 0.811 with SPIB; 0.901 with ETV5; 0.862 in the test with ELF4; 0.859 with ETV2. The sequence also had a binding signal in the test with ETV3L of 0.919.

With GAATCA, the binding signal with FLI1 was 0.901; in the test with EHF, 0.973; in the test with ETV5, 0.917; with ELF4, 0.86; with ETV2, 0.951; in the test with ETV3L, 0.938.

Consider TCGAAG, for which the binding signal in the test with FLI1 came out at 0.981; with EHF, 0.807; with SPIB, 0.9; in the test with ETV5 it was 0.897; with ELF4, 0.957; in the test with ETV2 it was 0.808. For the same sequence, the binding signal with ETV3L worked out at 0.904.

For ATAACG, the binding signal was found to be 0.964 in the test with FLI1; 0.979 with EHF; 0.96 in the test with ETV5; 0.945 with ELF4; 0.982 with ETV2; 0.941 with ETV3L.
